From publication PMC5764988
These are yes or no findings as the source states them, for the method shown. A result given as binding can be weak or reduced; the word gives no strength. For some assays here: In cells and extracts the contact can be indirect.

Experiments:
[1] = target: T1, MagD, the Type II alpha-2-macroglobulin from Pseudomonas aeruginosa (Pseudomonas aeruginosa) (UniProt Q9HVT2); experiment: SEC; MagD co-expressed with one other Mag protein in E. coli BL21 Star; co-purification by Ni-NTA and gel filtration (Superdex S200, 25 mM HEPES pH 7.5, 100 mM NaCl, 4 °C); both chains His6-tagged
T1 sequence: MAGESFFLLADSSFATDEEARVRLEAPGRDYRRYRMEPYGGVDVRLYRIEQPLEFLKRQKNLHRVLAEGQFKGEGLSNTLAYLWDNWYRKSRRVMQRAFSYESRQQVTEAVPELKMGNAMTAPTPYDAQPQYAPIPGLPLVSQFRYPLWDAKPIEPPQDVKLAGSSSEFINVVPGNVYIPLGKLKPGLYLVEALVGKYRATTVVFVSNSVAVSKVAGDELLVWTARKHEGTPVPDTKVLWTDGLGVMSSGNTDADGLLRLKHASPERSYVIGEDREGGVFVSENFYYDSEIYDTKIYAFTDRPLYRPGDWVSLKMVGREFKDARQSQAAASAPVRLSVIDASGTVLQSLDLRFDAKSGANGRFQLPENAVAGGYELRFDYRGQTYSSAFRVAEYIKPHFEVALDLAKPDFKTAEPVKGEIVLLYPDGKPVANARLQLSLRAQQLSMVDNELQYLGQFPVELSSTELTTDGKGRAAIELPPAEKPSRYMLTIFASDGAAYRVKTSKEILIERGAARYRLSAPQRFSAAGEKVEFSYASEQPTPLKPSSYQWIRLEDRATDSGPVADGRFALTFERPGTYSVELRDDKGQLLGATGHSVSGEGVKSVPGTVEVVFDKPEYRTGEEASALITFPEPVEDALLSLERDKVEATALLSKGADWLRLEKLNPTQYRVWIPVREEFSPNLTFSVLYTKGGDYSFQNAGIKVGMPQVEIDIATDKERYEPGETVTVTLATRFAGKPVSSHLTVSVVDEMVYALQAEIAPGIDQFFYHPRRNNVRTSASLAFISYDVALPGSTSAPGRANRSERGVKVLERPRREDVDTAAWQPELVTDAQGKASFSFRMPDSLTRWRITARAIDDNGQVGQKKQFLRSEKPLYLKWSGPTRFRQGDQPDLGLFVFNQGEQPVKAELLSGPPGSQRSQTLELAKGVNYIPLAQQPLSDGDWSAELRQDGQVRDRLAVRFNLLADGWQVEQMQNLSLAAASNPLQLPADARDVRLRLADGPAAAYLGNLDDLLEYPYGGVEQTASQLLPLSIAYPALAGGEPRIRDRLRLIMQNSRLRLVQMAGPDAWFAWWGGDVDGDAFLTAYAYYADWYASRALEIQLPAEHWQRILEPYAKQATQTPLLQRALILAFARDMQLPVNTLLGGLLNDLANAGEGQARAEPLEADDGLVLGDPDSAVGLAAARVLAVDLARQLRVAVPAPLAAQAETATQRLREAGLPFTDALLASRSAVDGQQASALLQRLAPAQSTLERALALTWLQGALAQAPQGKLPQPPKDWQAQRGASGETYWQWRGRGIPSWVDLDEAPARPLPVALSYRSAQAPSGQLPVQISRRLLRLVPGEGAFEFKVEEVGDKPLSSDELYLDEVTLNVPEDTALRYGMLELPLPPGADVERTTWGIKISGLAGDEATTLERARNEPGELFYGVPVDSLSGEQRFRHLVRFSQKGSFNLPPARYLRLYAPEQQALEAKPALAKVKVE

[2] = target: T1, MagD, the Type II alpha-2-macroglobulin from Pseudomonas aeruginosa (Pseudomonas aeruginosa); experiment: SAXS; LNLS SAXS1 beamline, 10 °C, 2 to 6 mg/mL in 25 mM HEPES pH 7.5, 100 mM NaCl, 5% glycerol, 1 mM DTT; samples purified by SEC beforehand; Rg and Dmax of the complexes compared with MagD; both purified

In the case of MagA (Pseudomonas aeruginosa), the binding [1] is reported as “binds” and the binding [2] is reported as “binds”.

MagE (Pseudomonas aeruginosa) was tested, and the binding [1] was “no binding”.

MagF (Pseudomonas aeruginosa) was tested, and the binding [1] was “binds” and the binding [2] was “binds”.
